Laboratory results as given in the supplement of paper PMC10849652.
The other results are listed elsewhere or left out.

Protein sequences, listed by entry. Tags and fused reporters are not part of them. Lines headed by an entry give the natural chain unless they say otherwise; changes in a name come on top.
UniProt P22670: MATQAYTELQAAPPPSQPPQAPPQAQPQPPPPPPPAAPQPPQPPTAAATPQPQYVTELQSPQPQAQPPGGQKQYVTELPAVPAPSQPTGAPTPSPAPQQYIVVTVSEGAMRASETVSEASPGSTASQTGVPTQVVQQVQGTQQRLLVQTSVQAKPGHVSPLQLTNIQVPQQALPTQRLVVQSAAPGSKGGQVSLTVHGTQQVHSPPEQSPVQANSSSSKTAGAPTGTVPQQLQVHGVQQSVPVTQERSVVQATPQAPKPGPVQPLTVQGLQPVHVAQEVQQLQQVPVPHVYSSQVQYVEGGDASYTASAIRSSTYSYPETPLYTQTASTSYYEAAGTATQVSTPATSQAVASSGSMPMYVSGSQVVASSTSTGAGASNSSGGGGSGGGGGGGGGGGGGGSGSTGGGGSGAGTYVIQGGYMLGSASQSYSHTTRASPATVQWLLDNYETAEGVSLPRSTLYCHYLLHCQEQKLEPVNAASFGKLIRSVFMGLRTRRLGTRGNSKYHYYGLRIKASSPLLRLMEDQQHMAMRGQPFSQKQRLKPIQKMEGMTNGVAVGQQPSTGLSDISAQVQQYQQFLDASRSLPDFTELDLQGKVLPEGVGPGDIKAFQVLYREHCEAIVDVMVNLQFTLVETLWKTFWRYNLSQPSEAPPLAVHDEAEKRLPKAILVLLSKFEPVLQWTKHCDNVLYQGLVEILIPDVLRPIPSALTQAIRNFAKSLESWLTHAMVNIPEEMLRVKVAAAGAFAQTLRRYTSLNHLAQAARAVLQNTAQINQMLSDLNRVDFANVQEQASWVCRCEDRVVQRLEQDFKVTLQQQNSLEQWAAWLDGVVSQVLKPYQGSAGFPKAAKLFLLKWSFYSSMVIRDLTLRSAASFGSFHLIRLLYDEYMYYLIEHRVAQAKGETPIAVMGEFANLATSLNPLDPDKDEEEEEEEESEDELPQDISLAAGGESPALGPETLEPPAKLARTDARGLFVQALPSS
UniProt Q8N0T1: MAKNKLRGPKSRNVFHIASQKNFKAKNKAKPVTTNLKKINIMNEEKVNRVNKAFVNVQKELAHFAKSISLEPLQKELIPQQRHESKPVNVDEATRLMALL
UniProt Q16576, whole entry, looked up: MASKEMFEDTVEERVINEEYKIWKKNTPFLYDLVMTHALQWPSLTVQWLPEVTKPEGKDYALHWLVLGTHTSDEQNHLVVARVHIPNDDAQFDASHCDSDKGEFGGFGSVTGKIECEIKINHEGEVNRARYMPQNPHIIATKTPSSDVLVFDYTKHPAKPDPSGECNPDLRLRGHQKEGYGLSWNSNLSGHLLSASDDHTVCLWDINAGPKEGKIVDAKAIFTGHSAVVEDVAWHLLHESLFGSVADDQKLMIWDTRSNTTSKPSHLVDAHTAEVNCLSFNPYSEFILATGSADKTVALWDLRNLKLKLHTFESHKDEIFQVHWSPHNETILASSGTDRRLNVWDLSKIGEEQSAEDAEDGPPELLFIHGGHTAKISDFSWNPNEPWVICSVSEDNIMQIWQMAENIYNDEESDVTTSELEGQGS
UniProt Q9P258, whole entry, looked up: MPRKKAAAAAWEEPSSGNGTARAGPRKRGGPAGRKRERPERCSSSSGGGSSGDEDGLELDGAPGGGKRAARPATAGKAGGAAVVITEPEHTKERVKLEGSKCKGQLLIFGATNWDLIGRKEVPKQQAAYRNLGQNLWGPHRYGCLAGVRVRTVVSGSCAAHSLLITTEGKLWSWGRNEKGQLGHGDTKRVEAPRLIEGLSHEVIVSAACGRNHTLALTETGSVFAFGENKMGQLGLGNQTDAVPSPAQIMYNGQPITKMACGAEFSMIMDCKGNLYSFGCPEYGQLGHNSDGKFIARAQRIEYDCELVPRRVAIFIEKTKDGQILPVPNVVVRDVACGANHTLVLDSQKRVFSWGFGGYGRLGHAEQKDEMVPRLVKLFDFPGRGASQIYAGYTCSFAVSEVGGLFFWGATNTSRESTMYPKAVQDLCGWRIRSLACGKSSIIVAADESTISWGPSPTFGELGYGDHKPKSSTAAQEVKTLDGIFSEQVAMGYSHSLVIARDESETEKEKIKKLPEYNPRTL
UniProt Q96T37: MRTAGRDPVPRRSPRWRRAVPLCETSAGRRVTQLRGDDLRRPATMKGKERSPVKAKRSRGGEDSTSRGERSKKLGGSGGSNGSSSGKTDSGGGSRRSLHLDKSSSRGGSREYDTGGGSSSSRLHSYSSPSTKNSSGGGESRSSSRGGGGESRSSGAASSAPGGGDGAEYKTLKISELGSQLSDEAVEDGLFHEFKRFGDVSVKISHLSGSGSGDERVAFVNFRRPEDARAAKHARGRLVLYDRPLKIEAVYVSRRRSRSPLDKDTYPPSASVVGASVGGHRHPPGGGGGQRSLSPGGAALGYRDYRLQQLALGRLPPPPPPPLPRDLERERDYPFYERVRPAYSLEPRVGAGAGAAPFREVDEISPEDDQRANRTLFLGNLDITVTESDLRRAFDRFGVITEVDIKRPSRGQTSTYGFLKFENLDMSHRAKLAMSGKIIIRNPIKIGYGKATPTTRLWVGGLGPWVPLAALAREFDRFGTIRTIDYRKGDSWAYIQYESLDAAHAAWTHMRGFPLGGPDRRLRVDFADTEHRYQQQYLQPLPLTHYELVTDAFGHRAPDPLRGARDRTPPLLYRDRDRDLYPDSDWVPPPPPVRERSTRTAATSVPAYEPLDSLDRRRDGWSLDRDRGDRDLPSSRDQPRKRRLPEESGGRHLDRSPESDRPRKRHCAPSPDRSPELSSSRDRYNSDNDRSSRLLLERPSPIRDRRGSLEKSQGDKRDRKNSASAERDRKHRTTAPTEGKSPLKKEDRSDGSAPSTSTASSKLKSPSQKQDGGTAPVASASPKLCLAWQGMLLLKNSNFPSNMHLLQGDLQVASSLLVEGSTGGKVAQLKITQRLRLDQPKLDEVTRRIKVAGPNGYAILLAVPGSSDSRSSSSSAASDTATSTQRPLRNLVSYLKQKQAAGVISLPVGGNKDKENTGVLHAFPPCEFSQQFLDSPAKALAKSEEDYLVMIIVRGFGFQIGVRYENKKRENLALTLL
UniProt Q969G6: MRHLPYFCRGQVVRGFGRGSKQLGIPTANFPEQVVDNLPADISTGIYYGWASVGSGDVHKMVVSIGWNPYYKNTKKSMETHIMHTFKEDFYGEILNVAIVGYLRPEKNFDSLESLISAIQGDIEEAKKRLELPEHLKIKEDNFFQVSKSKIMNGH
UniProt P42696: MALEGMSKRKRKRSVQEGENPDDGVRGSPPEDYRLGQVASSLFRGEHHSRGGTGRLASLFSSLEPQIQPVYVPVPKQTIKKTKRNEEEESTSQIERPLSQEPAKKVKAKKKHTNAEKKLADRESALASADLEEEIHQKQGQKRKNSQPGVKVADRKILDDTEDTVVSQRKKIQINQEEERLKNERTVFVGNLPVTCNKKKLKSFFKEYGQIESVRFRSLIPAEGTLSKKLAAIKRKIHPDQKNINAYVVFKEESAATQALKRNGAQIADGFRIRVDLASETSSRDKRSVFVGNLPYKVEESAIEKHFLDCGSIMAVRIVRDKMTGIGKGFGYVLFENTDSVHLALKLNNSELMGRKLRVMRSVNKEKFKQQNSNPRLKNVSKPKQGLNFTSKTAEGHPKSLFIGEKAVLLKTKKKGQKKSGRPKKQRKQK
UniProt Q5T8P6: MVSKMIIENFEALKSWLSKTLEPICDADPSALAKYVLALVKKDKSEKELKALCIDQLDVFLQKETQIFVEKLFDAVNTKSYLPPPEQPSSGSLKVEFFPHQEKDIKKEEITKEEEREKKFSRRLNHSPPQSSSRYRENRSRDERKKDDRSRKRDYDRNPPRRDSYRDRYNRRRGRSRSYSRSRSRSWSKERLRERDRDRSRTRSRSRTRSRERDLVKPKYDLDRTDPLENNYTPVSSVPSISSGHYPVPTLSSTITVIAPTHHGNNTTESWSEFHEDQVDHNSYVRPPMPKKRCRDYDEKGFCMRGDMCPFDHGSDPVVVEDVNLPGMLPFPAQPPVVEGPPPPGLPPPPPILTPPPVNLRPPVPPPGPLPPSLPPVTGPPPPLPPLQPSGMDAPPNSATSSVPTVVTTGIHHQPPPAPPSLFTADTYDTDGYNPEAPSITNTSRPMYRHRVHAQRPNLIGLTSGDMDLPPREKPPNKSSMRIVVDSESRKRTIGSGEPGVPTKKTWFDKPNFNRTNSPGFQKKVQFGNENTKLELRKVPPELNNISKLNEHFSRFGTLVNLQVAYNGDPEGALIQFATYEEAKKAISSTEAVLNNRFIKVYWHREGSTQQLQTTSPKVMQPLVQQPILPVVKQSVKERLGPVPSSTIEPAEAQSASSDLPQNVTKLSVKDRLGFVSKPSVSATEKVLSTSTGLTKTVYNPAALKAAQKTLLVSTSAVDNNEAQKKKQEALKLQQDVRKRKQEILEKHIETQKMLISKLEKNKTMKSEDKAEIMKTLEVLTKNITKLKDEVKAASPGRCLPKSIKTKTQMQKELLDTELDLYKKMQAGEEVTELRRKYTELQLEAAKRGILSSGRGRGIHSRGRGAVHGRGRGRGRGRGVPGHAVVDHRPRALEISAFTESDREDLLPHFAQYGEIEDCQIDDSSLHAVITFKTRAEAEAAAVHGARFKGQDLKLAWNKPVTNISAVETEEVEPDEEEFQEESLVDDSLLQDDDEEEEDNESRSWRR
UniProt Q9BTD8: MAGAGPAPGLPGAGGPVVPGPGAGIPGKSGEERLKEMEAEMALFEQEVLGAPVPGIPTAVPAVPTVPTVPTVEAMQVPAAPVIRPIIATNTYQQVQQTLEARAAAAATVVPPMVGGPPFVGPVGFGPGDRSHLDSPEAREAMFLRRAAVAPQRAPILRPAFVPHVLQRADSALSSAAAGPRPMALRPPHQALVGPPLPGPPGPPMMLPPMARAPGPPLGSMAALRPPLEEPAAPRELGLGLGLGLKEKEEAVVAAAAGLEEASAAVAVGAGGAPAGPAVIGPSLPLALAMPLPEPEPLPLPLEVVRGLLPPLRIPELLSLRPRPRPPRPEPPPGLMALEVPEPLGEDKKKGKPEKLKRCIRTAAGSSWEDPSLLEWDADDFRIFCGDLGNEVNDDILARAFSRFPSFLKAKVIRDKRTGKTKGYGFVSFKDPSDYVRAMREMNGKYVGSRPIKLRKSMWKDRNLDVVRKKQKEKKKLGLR
UniProt P38159: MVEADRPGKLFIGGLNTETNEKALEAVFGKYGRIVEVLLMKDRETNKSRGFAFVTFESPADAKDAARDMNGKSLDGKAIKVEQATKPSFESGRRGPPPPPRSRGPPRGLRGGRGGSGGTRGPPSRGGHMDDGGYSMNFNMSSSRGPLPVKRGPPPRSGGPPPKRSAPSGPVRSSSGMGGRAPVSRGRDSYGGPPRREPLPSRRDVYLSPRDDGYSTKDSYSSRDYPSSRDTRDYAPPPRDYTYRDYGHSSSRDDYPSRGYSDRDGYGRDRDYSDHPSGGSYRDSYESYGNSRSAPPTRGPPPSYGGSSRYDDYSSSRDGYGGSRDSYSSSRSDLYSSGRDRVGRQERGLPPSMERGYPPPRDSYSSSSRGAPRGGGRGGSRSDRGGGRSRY
UniProt Q86U06: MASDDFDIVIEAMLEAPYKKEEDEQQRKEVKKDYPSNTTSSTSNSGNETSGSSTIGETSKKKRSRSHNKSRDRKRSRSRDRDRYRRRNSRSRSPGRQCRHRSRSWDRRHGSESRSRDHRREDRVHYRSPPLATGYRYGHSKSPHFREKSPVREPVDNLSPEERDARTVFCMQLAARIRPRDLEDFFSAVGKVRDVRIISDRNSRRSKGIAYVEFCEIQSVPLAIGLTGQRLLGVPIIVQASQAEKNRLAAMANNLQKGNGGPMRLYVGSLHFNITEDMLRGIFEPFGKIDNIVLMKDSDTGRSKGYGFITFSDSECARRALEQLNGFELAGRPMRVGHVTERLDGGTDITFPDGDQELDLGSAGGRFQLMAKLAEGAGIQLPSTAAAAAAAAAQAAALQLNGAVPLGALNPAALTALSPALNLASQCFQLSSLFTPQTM
UniProt P54136: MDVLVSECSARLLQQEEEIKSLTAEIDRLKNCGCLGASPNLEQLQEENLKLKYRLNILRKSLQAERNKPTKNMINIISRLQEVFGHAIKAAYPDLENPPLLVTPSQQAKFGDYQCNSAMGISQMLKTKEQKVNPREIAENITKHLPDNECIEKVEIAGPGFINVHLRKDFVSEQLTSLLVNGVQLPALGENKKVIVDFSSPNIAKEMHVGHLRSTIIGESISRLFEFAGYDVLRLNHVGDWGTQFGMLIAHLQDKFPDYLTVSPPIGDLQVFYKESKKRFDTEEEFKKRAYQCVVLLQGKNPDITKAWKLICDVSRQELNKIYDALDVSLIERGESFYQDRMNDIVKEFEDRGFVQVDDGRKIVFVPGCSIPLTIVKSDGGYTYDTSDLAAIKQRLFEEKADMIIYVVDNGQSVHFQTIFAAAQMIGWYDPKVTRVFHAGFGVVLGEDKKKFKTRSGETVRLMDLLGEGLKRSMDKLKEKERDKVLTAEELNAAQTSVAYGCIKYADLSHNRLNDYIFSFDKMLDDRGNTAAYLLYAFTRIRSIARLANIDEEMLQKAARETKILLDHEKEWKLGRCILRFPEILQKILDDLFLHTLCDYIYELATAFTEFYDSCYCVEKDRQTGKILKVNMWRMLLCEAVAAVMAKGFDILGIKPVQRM

What was measured:
Assay in all cases: log2 fold change, soluble protein after heating vs DMSO (PISA); higher = thermal stabilisation; K562 lysate, 10 uM; active = over 0.2 and 3.5 SD of the protein, either way, in both replicates (recomputed)
[1] = compound: NCC(=O)Nc1ccc(-n2nc(C(F)(F)F)cc2-c2ccc3c(ccc4ccccc43)c2)cc1
How it was run: (§1)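 K562 pellets were dounce-homogenised in PBS pH 7.4 with 1 mM MgCl2, and the crude extract at 1 mg/mL protein was treated with 10 μM compound for 30 min. Aliquots were heated for 3 min across 48°C-58°C, pooled, and brought to 0.5% NP-40 at 4°C; soluble protein was the supernatant after 21,000xg for 90 min. Soluble protein was quantified by TMTpro 16plex LC-MS/MS with channel sums equalised, and reported as log2 fold change in thermal stability against DMSO controls, with values from duplicates.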

vorinostat = compound: O=C(CCCCCCC(=O)Nc1ccccc1)NO [vorinostat]
How it was run: as §1

silmitasertib = compound: O=C(O)c1ccc2c(c1)nc(Nc1cccc(Cl)c1)c1ccncc12 [silmitasertib]
How it was run: as §1

[2] = compound: O=C1NC(=O)C(c2cnc3ccccn23)=C1c1cn2c3c(cc(F)cc13)CN(C(=O)N1CCCCC1)CC2
How it was run: as §1

entospletinib = compound: c1cn2cc(-c3ccc4cn[nH]c4c3)nc(Nc3ccc(N4CCOCC4)cc3)c2n1 [entospletinib]
How it was run: as §1

Row | Target | log2 fold change [1] | log2 fold change (vorinostat) | log2 fold change (silmitasertib) | log2 fold change [2] | log2 fold change (entospletinib)
1 | RAVER1 (UniProt E9PAU2) | inactive: 0.085 | inactive: -0.021 | inactive: -0.026 | inactive: -0.016 | inactive: -0.023
2 | RETSAT (UniProt Q6NUM9) | inactive: -0.087 | inactive: 0.17 | inactive: -0.016 | inactive: 0.058 | inactive: 0.036
3 | RFX1 (UniProt P22670) | inactive: 0.01 | inactive: 0.037 | inactive: -0.014 | inactive: 0.013 | inactive: 0.029
4 | RCN2 isoform 2 (UniProt Q14257) | inactive: -0.021 | inactive: 0.092 | inactive: 0.047 | inactive: -0.012 | inactive: 0.039
5 | RFC2 (UniProt P35250) | inactive: -0.027 | active: -0.506 | inactive: 0.043 | inactive: -0.017 | inactive: 0.004
6 | RBM4 (UniProt Q9BWF3) | inactive: -0.04 | inactive: -0.172 | inactive: 0.035 | inactive: -0.097 | inactive: 0.001
7 | RBIS (UniProt Q8N0T1) | inactive: -0.027 | inactive: 0.117 | inactive: -0.003 | inactive: -0.031 | inactive: 0.014
8 | RFLNB (UniProt Q8N5W9) | inactive: -0.031 | inactive: 0.081 | inactive: -0.058 | inactive: -0.002 | inactive: 0.019
9 | RETREG2 (UniProt Q8NC44) | inactive: -0.058 | inactive: 0.023 | inactive: 0.015 | inactive: -0.007 | inactive: -0.004
10 | RBBP7 isoform 2 (UniProt Q16576) | inactive: -0.043 | inactive: 0.03 | inactive: -0.012 | inactive: -0.068 | inactive: 0.024
11 | RCC2 (UniProt Q9P258) | inactive: 0.015 | inactive: -0.062 | inactive: 0.026 | inactive: -0.01 | inactive: 0.001
12 | RDH11 (UniProt Q8TC12) | inactive: 0.008 | inactive: 0.038 | inactive: 0.022 | inactive: -0.047 | inactive: 0.014
13 | RERE (UniProt Q9P2R6) | inactive: 0.098 | inactive: -0.119 | inactive: -0.056 | inactive: -0.043 | inactive: -0.103
14 | RBM15 (UniProt Q96T37) | inactive: 0.045 | inactive: -0.015 | inactive: 0.038 | inactive: 0.042 | inactive: 0.048
15 | REEP5 (UniProt Q00765) | inactive: -0.034 | inactive: 0.001 | inactive: -0.025 | inactive: 0.02 | inactive: 0.015
16 | RER1 (UniProt O15258) | inactive: -0.022 | inactive: 0.107 | inactive: 0.003 | inactive: 0.056 | inactive: 0.002
17 | RFK (UniProt Q969G6) | inactive: 0.013 | inactive: -0.062 | inactive: -0.001 | inactive: 0.002 | inactive: 0.029
18 | RBM5 (UniProt P52756) | inactive: 0.036 | active: -0.427 | inactive: 0.072 | inactive: -0.056 | inactive: 0.023
19 | RBM34 (UniProt P42696) | inactive: -0.033 | inactive: 0.05 | inactive: 0.035 | inactive: 0.014 | inactive: 0.029
20 | RFESD isoform 2 (UniProt Q8TAC1) | inactive: 0.029 | inactive: 0.091 | inactive: -0.031 | inactive: -0.018 | inactive: 0.044
21 | RCL1 (UniProt Q9Y2P8) | inactive: 0.044 | inactive: -0.2 | inactive: 0.112 | inactive: -0.03 | inactive: -0.052
22 | RBM26 isoform 3 (UniProt Q5T8P6) | inactive: -0.014 | inactive: -0.13 | inactive: 0.005 | inactive: 0.013 | inactive: -0.056
23 | REPIN1 isoform 4 (UniProt Q9BWE0) | inactive: 0.027 | inactive: 0.05 | inactive: -0.106 | inactive: -0.017 | inactive: -0.03
24 | RBBP4 (UniProt Q09028) | inactive: 0.018 | inactive: 0.104 | inactive: 0.016 | inactive: 0.008 | inactive: -0.007
25 | RBM3 (UniProt P98179) | inactive: -0.044 | inactive: 0.208 | inactive: -0.164 | inactive: -0.042 | inactive: 0.032
26 | RBM42 (UniProt Q9BTD8) | inactive: 0.19 | inactive: -0.04 | inactive: -0.031 | inactive: 0.018 | inactive: -0.058
27 | RFX5 (UniProt P48382) | inactive: 0.057 | inactive: -0.171 | inactive: 0.034 | inactive: 0.005 | inactive: 0.08

Just log2 fold change (vorinostat), log2 fold change (silmitasertib) and log2 fold change (entospletinib) (two entries from above):
Row	Target	log2 fold change (vorinostat)	log2 fold change (silmitasertib)	log2 fold change (entospletinib)
7	RBIS (UniProt Q8N0T1)	inactive: 0.117	inactive: -0.003	inactive: 0.014
19	RBM34 (UniProt P42696)	inactive: 0.05	inactive: 0.035	inactive: 0.029

(next part)

Row | Target | log2 fold change [1] | log2 fold change (vorinostat) | log2 fold change (silmitasertib) | log2 fold change [2] | log2 fold change (entospletinib)
28 | RC3H1 (UniProt Q5TC82) | inactive: 0.078 | inactive: 0.006 | inactive: -0.038 | inactive: 0.043 | inactive: -0.111
29 | RASA3 (UniProt Q14644) | inactive: -0.022 | active: -0.361 | inactive: -0.08 | inactive: -0.015 | inactive: 0.017
30 | RENBP (UniProt P51606) | inactive: -0.04 | inactive: 0.04 | inactive: -0.078 | inactive: -0.045 | inactive: 0
31 | RBM38 (UniProt Q9H0Z9) | inactive: -0.02 | inactive: -0.011 | inactive: -0.006 | inactive: -0.106 | inactive: -0.04
32 | RHAG (UniProt Q02094) | inactive: 0.031 | inactive: -0.026 | inactive: 0.153 | inactive: 0.015 | inactive: -0.03
33 | RFC1 (UniProt P35251) | inactive: -0.038 | inactive: -0.174 | inactive: 0.105 | inactive: 0 | inactive: -0.014
34 | RHEB (UniProt Q15382) | inactive: -0.042 | inactive: -0.089 | inactive: 0.058 | inactive: -0.031 | inactive: 0.004
35 | RCSD1 (UniProt Q6JBY9) | inactive: 0.023 | inactive: 0.062 | inactive: 0.019 | inactive: 0.012 | inactive: 0
36 | REEP4 (UniProt Q9H6H4) | inactive: -0.007 | inactive: 0.066 | inactive: -0.067 | inactive: 0.025 | inactive: 0.033
37 | RBM48 isoform 2 (UniProt Q5RL73) | inactive: -0.093 | inactive: -0.05 | inactive: -0.056 | inactive: -0.037 | inactive: -0.004
38 | RCAN1 (UniProt P53805) | inactive: 0.082 | inactive: -0.197 | inactive: 0.02 | inactive: 0.02 | inactive: 0.031
39 | RETREG3 (UniProt Q86VR2) | inactive: -0.015 | inactive: 0.039 | inactive: 0.014 | inactive: 0.023 | inactive: 0.004
40 | RBM7 (UniProt Q9Y580) | inactive: -0.025 | inactive: -0.163 | inactive: 0.042 | inactive: -0.076 | inactive: -0.082
41 | RDX (UniProt P35241) | inactive: 0.002 | inactive: 0.129 | inactive: -0.017 | inactive: -0.008 | inactive: 0.023
42 | RB1 (UniProt P06400) | inactive: -0.002 | inactive: -0.025 | inactive: 0.004 | inactive: -0.063 | inactive: -0.003
43 | RBBP5 (UniProt Q15291) | inactive: 0.008 | inactive: 0.108 | inactive: 0.004 | inactive: -0.013 | inactive: -0.017
44 | RDH13 (UniProt Q8NBN7) | inactive: -0.045 | inactive: 0.117 | inactive: 0.104 | inactive: -0.045 | inactive: 0.034
45 | RELCH isoform 2 (UniProt Q9P260) | inactive: 0.098 | inactive: -0.094 | inactive: 0.039 | inactive: -0.021 | inactive: -0.007
46 | RGP1 (UniProt Q92546) | inactive: -0.01 | inactive: 0.109 | inactive: -0.067 | inactive: 0.032 | inactive: 0.142
47 | RBMX (UniProt P38159) | inactive: -0.043 | inactive: 0.065 | inactive: 0.048 | inactive: -0.022 | inactive: 0.008
48 | RBM6 (UniProt P78332) | inactive: 0.054 | inactive: -0.061 | inactive: -0.034 | inactive: 0.02 | inactive: -0.027
49 | RBM23 isoform 2 (UniProt Q86U06) | inactive: 0.121 | inactive: -0.334 | inactive: -0.019 | inactive: -0.113 | inactive: 0.037
50 | RGPD5 (UniProt Q99666) | inactive: -0.037 | inactive: -0.033 | inactive: -0.061 | inactive: 0.019 | inactive: -0.057
51 | RBCK1 (UniProt Q9BYM8) | inactive: 0.006 | inactive: -0.04 | inactive: 0.048 | inactive: -0.045 | inactive: 0.02
52 | RARS (UniProt P54136) | inactive: -0.004 | active: -0.309 | inactive: 0.056 | inactive: -0.009 | inactive: 0.024
53 | RASSF5 (UniProt Q8WWW0) | inactive: 0.005 | inactive: -0.036 | inactive: 0.072 | inactive: -0.037 | inactive: -0.012
